Test results reported in patent CN115894704A.
Results are given in words; binding and its absence hold for the method and conditions named. Some entries that bind do so weakly or less than the wild type. Where a sequence is shown, tags or fusion partners need not be part of it.

T1: EpCAM-His蛋白 (UniProt P16422)
T1 sequence (looked up): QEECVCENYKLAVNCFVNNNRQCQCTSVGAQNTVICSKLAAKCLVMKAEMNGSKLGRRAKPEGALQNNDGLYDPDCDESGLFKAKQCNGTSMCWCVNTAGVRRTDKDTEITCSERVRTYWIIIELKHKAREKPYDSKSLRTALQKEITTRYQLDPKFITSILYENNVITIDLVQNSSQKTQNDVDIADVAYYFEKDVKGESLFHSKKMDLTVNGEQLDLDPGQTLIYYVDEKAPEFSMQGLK


Target: T1, EpCAM-His蛋白
Assay: ELISA, EpCAM-His coated, VHH-hFc titrated, anti-hFc-HRP

Row | Binder | binding
1 | Anti-EpCAM-VHH SEQ ID NO 2 VHH-hFc融合蛋白 (Fc fusion, not shown: a dimerising Fc or GST) HVQLVESGGGSVQSGGSLRLSCAASGYAVKNCMGWFRQAPGKEREGVAVINRNGITTYADSVKGRFTISQDKDKNTLDLQMNSLKPEDTAMYYCAATPTLLTIPARFLCDVRNPSGFTDWGQGTLVTVSS | binds
2 | Anti-EpCAM-VHH SEQ ID NO 3 VHH-hFc融合蛋白 (Fc fusion, not shown: a dimerising Fc or GST) QVQLVESGGGSVQAGGSLRLSCVVSAYSAYTYKTMCMGWFRQAPGKEREGVAAIYRGGLNTYYADSVKGRFIISRDNAESTMYLQMNSLKPEDTAMYYCAADWLRGDDCNIGANFDYWGQGTQVTVSS | binds
3 | Anti-EpCAM-VHH SEQ ID NO 4 VHH-hFc融合蛋白 (Fc fusion, not shown: a dimerising Fc or GST) QVQLVESGGGSVQAGGSLRLSCVATGFTISRKCMGWFREAPGKKREVIATINTGSSSPYYADGVKGRFTISQDNAKNTVYLQMNSLKPEDTAMYYCAATKGVVVGTGYCGGPYVERPNSAYWGQGTQVTVSS | binds
4 | Anti-EpCAM-VHH SEQ ID NO 1 VHH-hFc融合蛋白 (Fc fusion, not shown: a dimerising Fc or GST) DVQLVESGGGSVQSGGSLRLSCAASGYTYRRYYMGWFRQAPGEQREGVAVINNDGRTNYADSVKGRFRISRDNAENTLHLEMNSLKPEDTAMYYCAATGNILPPMTAVPPLGRQWYPYWGRGTLVTVSS | binds

Second part, the binder after the results:

Row | binding | Binder
5 | binds | Anti-EpCAM-VHH SEQ ID NO 9 VHH-hFc融合蛋白 (Fc fusion, not shown: a dimerising Fc or GST) HVQLVESGGGSVQSGGSLRLSCAVSGYAYSSLAWFRQAPGKEREGVAALLTAIGGPTRTTYADSVKGRLAISQDHAKNTLYLQMSSLKPEDTAMYYCAAGRPAGTPRWLLLAPRDYNYWGQGTQVTVSS
6 | binds | Anti-EpCAM-VHH SEQ ID NO 8 VHH-hFc融合蛋白 (Fc fusion, not shown: a dimerising Fc or GST) EVQLVESGGDSVQAGGSLRLSCAASGYSPGSYCMGWFRQAPGKERERVAIIESRGTVTYVDSVKGRFTISKDNAKNTLYLQMNSLKPEDTAMYYCAASRPWSGVRCLHDKYDYWGQGTQVTVSS
7 | binds | Anti-EpCAM-VHH SEQ ID NO 7 VHH-hFc融合蛋白 (Fc fusion, not shown: a dimerising Fc or GST) HVQLVESGGGSVQAGGSLKLSCAASGSIFSGSIFSRCGMRWYRQAPGKERELVSSTSKDGFTSYTDSVKGRFTISQDNANNTLYLQMSSLKTEDTAVYSCAAICAVGGYSLSTYTYWGQGTQVTVSS
8 | binds | Anti-EpCAM-VHH SEQ ID NO 6 VHH-hFc融合蛋白 (Fc fusion, not shown: a dimerising Fc or GST) DVQLVESGGGSAQAGGSLRLSCAASGPTSSLRTMGWFRQASGKERERVAVIWDGRTTDYDDSVQDRFTISQDNAKSTVYLQMNTLKPEDTAMYYCAASPRIVPFASTYFQHWGQGTQVTVSS
9 | binds | Anti-EpCAM-VHH SEQ ID NO 5 VHH-hFc融合蛋白 (Fc fusion, not shown: a dimerising Fc or GST) DVQLVESGGGSVQAGRSLRLSCELSDYTWSTVCMGWFRQAPGKEREGVAVIYTRSGGTTYADSAKGRFTISRDNAKDTLYLQMDSLKPEDTAMYYCAAGPLYDGRCTYRSPAFHYWGQGTQVTVSS
